Literature values in patent US11452751B2, “Medication dispensing system” (priority 2015, dated 2022).

Settings: natural derived CBD

C=C(C)[C@@H]1CCC(C)=C[C@H]1c1c(O)cc(CCCCC)cc1O [CBD, Cannabidiol]
solubility in water: not readily soluble in water
